Data: publication PMC12273628, “In vitro reconstitution of a minimal human centrosome scaffold capable of forming and clustering microtubule asters” (Journal of Cell Science, 2025)
Results are given in words; binding and its absence hold for the method and conditions named.

Amino acid sequences for entries named in this document (tags omitted). A change or cut given only in a name is not applied to a line headed by its entry. Chains listed by the source or under a name are the forms on record and can include a tag or linker.
GFP::CDK5RAP2 isoform B, full length, wild type (assembled into micron-scale scaffolds with anti-CM2 IgM) (Q96SN8, form named): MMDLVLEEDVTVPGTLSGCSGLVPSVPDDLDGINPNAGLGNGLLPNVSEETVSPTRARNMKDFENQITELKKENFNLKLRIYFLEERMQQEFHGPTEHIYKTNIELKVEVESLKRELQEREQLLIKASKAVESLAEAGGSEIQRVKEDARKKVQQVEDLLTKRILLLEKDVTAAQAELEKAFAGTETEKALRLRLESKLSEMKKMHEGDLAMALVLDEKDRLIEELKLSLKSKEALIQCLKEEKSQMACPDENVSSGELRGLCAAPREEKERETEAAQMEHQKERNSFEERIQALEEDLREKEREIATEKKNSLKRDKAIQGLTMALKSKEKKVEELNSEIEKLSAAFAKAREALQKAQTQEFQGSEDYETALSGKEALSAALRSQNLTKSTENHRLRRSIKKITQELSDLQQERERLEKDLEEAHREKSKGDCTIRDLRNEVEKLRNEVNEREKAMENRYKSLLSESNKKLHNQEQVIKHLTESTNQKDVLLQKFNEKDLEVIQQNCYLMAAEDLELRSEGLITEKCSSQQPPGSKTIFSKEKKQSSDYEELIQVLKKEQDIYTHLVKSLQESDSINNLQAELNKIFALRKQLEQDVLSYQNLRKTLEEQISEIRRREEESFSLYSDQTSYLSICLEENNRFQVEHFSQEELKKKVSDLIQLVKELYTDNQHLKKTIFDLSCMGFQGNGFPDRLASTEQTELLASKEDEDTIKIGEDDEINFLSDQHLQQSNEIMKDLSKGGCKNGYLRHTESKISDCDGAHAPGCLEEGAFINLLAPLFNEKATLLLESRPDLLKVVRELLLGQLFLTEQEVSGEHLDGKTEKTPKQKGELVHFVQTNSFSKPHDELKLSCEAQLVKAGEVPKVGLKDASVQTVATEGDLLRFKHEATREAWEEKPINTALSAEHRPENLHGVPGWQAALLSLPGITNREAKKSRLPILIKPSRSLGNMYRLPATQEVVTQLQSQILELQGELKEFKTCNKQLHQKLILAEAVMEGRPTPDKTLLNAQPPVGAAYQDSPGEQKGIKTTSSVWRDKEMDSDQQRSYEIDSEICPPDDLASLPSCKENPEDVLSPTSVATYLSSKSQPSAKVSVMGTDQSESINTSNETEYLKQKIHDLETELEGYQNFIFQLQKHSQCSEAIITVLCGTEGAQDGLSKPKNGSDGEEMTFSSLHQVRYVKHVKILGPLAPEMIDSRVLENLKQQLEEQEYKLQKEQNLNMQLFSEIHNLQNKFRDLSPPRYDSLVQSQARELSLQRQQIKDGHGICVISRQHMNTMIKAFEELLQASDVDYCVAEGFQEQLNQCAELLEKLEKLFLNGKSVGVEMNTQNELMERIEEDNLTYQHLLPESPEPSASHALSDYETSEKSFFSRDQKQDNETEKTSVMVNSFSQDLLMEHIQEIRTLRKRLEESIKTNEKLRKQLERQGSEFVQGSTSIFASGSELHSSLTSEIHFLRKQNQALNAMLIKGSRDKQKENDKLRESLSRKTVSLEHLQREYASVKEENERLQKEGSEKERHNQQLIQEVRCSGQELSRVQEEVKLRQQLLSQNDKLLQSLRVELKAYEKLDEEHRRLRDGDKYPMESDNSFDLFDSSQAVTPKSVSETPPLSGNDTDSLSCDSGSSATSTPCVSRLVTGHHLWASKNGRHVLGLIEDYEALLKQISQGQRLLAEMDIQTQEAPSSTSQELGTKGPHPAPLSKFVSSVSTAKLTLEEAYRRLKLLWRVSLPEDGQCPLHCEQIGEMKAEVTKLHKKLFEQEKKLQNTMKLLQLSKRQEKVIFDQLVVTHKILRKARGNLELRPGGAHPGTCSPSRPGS

Target: GFP::CDK5RAP2 isoform B, full length, wild type (assembled into micron-scale scaffolds with anti-CM2 IgM) (human) (UniProt Q96SN8)
Test: partitioning into in vitro scaffolds (confocal fluorescence microscopy); 120 nM GFP::CDK5RAP2 assembled with anti-CM2 IgM, 50 nM mCherry, mCherry::HSET or mCherry::HSET(ΔIDR); 50 mM KCl, 25 mM HEPES; partition coefficient of mCherry signal; both purified

binding: no binding (tested: 50 nM)
B1: mCherry::HSET(ΔIDR), lacking the N-terminal intrinsically disordered region (missing a.a. 2–138) (domain or fragment, UniProt Q9BW19)
chain: MLKGQLCDLNAELKRCRERTQTLDQENQQLQDQLRDAQQQVKALGTERTTLEGHLAKVQAQAEQGQQELKNLRACVLELEERLSTQEGLVQELQKKQVELQEERRGLMSQLEEKERRLQTSEAALSSSQAEVASLRQETVAQAALLTEREERLHGLEMERRRLHNQLQELKGNIRVFCRVRPVLPGEPTPPPGLLLFPSGPGGPSDPPTRLSLSRSDERRGTLSGAPAPPTRHDFSFDRVFPPGSGQDEVFEEIAMLVQSALDGYPVCIFAYGQTGSGKTFTMEGGPGGDPQLEGLIPRALRHLFSVAQELSGQGWTYSFVASYVEIYNETVRDLLATGTRKGQGGECEIRRAGPGSEELTVTNARYVPVSCEKEVDALLHLARQNRAVARTAQNERSSRSHSVFQLQISGEHSSRGLQCGAPLSLVDLAGSERLDPGLALGPGERERLRETQAINSSLSTLGLVIMALSNKESHVPYRNSKLTYLLQNSLGGSAKMLMFVNISPLEENVSESLNSLRFASKVNQCVIGTAQANRK
